Measured values: PubChem BioAssay AID540303 (National Center for Advancing Translational Sciences (NCATS), 2011)
In all, about 330,000 compounds went through this assay and about 1,000 (0.3%) were called active. The shares of active, inactive and inconclusive entries below differ from those in the screen. Calls follow the shape of the dose curve; as a rule, active = well fitted inhibition curve with a large enough effect; inconclusive = small, poorly fitted or top-dose-only effect; inactive = no such curve, though single readings can be large or run the other way; tested in mouse RAW 264.7 cells. Potencies beside an inconclusive call are fits to weak or partial responses and may not hold up.

Assay: qHTS for Inhibitors of Cell Surface uPA Generation; also: nearly all actives have a fitted effect of over 55% in size
Settings: cell surface uPA generation assay; series mostly up to 38.3 µM
Method in brief: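 Validation set in qHTS format. RAW 264.7 cells were pre-plated overnight and then exposed to compounds (up to 38.3 uM final) for 24 h at 37 C in 5% CO2, followed by a luminescent ATP-Lite measurement.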
Potency is read from the fitted curve at half-maximal effect.

SMILES	Potency
Cc1ccc(N(C)C2=NC(=O)CS2)cc1Cl	inactive
CNC(=O)c1cccc(NC(=O)c2cc(-c3ccccc3)nc3c2cnn3C(C)C)c1	inconclusive: 2.82 µM [inhibitor, partial curve]
CCOC(=O)Cc1csc(NC(=O)c2cccc([N+](=O)[O-])c2)n1	inconclusive: 0.316 µM [inhibitor, full curve, poor fit]
O=C(Nc1ccc(SC(F)F)cc1)c1ccc2c(=O)n3c(nc2c1)CCC3	inconclusive: 14.1 µM [inhibitor, partial curve, poor fit]
Cc1cc(Cl)ccc1OCC(=O)Nc1cccc(S(=O)(=O)N2CCCC2)c1	inconclusive: 12.6 µM [inhibitor, single point]
O=C(NCCC1CCCCN1S(=O)(=O)c1ccccc1)C(=O)NCc1ccccc1 (configuration not stated)	inconclusive: 7.94 µM [inhibitor, single point]
Cc1ccc(OCCCN2C(=O)C(=O)c3cccc(C)c32)cc1	inactive
C=CCN(c1ccccc1)S(=O)(=O)c1cccc(C(=O)NC2CCN(Cc3ccccc3)CC2)c1	inconclusive: 22.4 µM [inhibitor, single point]
Oc1c(CN2CCN(c3ccccc3)CC2)cc(Br)c2cccnc12	inconclusive: 1 µM [inhibitor, partial curve, poor fit]
COc1ccc(Cl)cc1Nc1nc(-c2sc(NC(=O)C(C)(C)C)nc2C)cs1	inconclusive: 5.01 µM [inhibitor, partial curve, poor fit]
O=C(C1=C[C@@H](c2ccc(Br)cc2)C[C@@H](OCCCCO)O1)N1CCN(Cc2ccccc2)CC1	inconclusive: 28.2 µM [inhibitor, single point]
CCCCN(CC)S(=O)(=O)c1ccccc1	inactive
Cc1ccccc1S(=O)(=O)Oc1cccc2c(O)cccc12	inactive
O=C(NCc1ccc(Cl)cc1)c1cnn2ccccc12	inconclusive: 20 µM [inhibitor, partial curve, poor fit]
O=C(Nc1cccnc1)c1sc(Nc2ccccc2F)nc1-c1ccccc1	inconclusive: 1.41 µM [inhibitor, partial curve, poor fit]
COc1ccc(-n2cc(CNCCc3nc(C)cc(C)n3)c(-c3ccccc3Cl)n2)cc1	inactive
Cc1ccc(C(=O)Nc2cccc(C(=O)O)c2)cc1S(=O)(=O)N1CCOCC1	inactive
Cc1ccc2c(c1)[nH]c1c(=O)n(Cc3ccco3)cnc12	inactive
CCOC(=O)C1=CN(Cc2cccc(Br)c2)S(=O)(=O)N(CC)C1C (configuration not stated)	inconclusive: 7.94 µM [inhibitor, partial curve, poor fit]
Cc1noc(/C=C/N(C)C)c1S(=O)(=O)N1CCCC(C(=O)NC2CCCCC2)C1 (configuration not stated)	inconclusive: 3.16 µM [inhibitor, partial curve]
Nc1nc(Nc2ccccc2F)nc(NCc2ccccc2)c1[N+](=O)[O-]	inconclusive: 12.6 µM [inhibitor, single point]
Cc1cc(Cl)c(C(=O)Nc2cccc(C(F)(F)F)c2)c(C)n1	inconclusive: 17.8 µM [inhibitor, single point]
CC(=O)c1cccc(NS(=O)(=O)c2ccc(N/C=C/C(=O)c3ccc(F)cc3)cc2)c1	inconclusive: 7.94 µM [inhibitor, partial curve, poor fit]

SMILES	Potency
COc1cccc(OC)c1/C(O)=C(\C#N)c1nc2ccccc2[nH]1	inconclusive: 12.6 µM [inhibitor, partial curve, poor fit]
NC(=S)N/N=C/c1ccccc1OCCSc1ccc(Cl)cc1	inactive
CCCCCCC[C@@H](C/C=C/CCC(=O)N(C)C/C(=C/Cl)C/C(=C\C(=O)N1C[C@H](O)CC1=O)OC)OC	inconclusive: 10 µM [inhibitor, partial curve, poor fit]
Cc1ccc(Nc2c(-c3ccccn3)nc3ccc(C)cn23)cc1	active: 6.31 µM
OC[C@H]1OC(Nc2ccc(N=Nc3ccccc3)cc2)[C@@H](O)[C@@H](O)[C@@H]1O (some centres not stated)	inconclusive: 6.31 µM [inhibitor, partial curve, poor fit]
O=c1c(Cc2ccc(F)cc2)c(O)ccn1CCc1ccccn1	inconclusive: 5.62 µM [inhibitor, partial curve, poor fit]
CCN1/C(=C/c2ccc3cc(C)ccc3[n+]2CC)Sc2cc(C)ccc21	active: 1 µM
CCN(CCN(C)C)C(=O)C1CCN(S(=O)(=O)c2c(C)noc2/C=C/c2ccccc2F)CC1	inconclusive: 1.12 µM [inhibitor, single point]
O=C(NCC(c1cccs1)N1CCc2ccccc21)c1ccccc1 (configuration not stated)	inconclusive: 12.6 µM [inhibitor, single point]
COc1ccc(CN2C[C@H]3CCCN3c3cc(Br)ccc3S2(=O)=O)cc1	inconclusive: 0.562 µM [inhibitor, full curve, poor fit]
O=C(NCCOc1nc(N2CCCCC2)nc(N2CCCCC2)n1)Nc1ccccc1	inactive
CCCn1nc(C(=O)Nc2nnc(CC)s2)c2ccccc2c1=O	inactive
O=C1N[C@@H](Cc2ccccc2)COC(=O)[C@@H](Cc2ccc(F)cc2)CC/C=C/C[C@H]1CC(=O)N(CCO)Cc1ccccc1	inconclusive: 28.2 µM [inhibitor, single point]
CCOC(=O)c1c(N)sc(C(=O)Nc2ccccc2F)c1C	inconclusive: 12.6 µM [inhibitor, partial curve, poor fit]
Cc1ccc(-c2nnn(CC(=O)Nc3nnc(C(C)C)s3)n2)cc1	inactive
CCN(CC(=O)Nc1c(F)cccc1F)C(=O)CCc1nc2cc(S(=O)(=O)N3CCOCC3)ccc2n1C	inconclusive: 1 µM [inhibitor, full curve, poor fit]
COc1cccc(/C=N/NC(=O)c2ccccc2)c1OS(=O)(=O)c1ccccc1	inactive
Cc1cc(Cl)nc(Cl)c1C(=O)NC(=O)NCCC(C)C	inconclusive: 3.98 µM [inhibitor, partial curve, poor fit]
Cc1cccc(/N=C/c2nc(-c3ccccc3Br)oc2O)n1	inconclusive: 20 µM [inhibitor, partial curve, poor fit]
CCOC(OCC)c1ccc(/C=C\c2nccc(N)n2)cc1	inconclusive: 15.8 µM [inhibitor, single point]
CCc1ccc2nc(N)sc2c1	inconclusive: 10 µM [inhibitor, partial curve]
O=C(CCn1c2c(c3ccccc31)CCCC2)NNC(=O)c1ccccc1C(=O)O	inactive
O=C(Nc1cc(S(=O)(=O)N2CCCCC2)ccc1Cl)c1ccccc1NS(=O)(=O)c1ccc(F)cc1	inactive

Three structures from above, sorted by molecular weight, smallest number first:
SMILES	Potency
COc1cccc(OC)c1/C(O)=C(\C#N)c1nc2ccccc2[nH]1	inconclusive: 12.6 µM [inhibitor, partial curve, poor fit]
COc1ccc(CN2C[C@H]3CCCN3c3cc(Br)ccc3S2(=O)=O)cc1	inconclusive: 0.562 µM [inhibitor, full curve, poor fit]
CCN(CCN(C)C)C(=O)C1CCN(S(=O)(=O)c2c(C)noc2/C=C/c2ccccc2F)CC1	inconclusive: 1.12 µM [inhibitor, single point]

Following part.

SMILES	Potency
CC(NC(=O)COC(=O)c1ccc([N+](=O)[O-])s1)c1ccccc1 (configuration not stated)	inactive
CN1/C(=C\C(=S)NC(=O)c2ccccc2Cl)C(C)(C)c2ccccc21	inactive
Nc1ccc(S(=O)(=O)Nc2nccs2)cc1	inconclusive: 5.01 µM [inhibitor, single point]
COc1ccc(S(=O)(=O)N2CCC3(CC2)OCCN3S(=O)(=O)c2ccc(C)cc2)cc1OC	inconclusive: 3.16 µM [inhibitor, partial curve, poor fit]
Cn1cc([N+](=O)[O-])c(C(=O)Nc2ccc(C3CCCCC3)cc2)n1	inconclusive: 6.31 µM [inhibitor, single point]
Cc1cccc(NC(=S)NC2CC3CCCC(C2)N3Cc2cccs2)c1 (configuration not stated)	inconclusive: 10 µM [inhibitor, partial curve, poor fit]
CCN(C(=O)C1CCN(c2nc(-c3ccc(OC)cc3)no2)CC1)c1ccc(OC)cc1	inconclusive: 10 µM [inhibitor, single point]
Cn1c2ccccc2c(=O)c2ccc(C#CC3(N)CCCCC3)cc21	inconclusive: 10 µM [inhibitor, partial curve, poor fit]
Oc1ccc(N=Nc2ccccc2C(F)(F)F)c2cccnc12	inconclusive: 3.16 µM [inhibitor, partial curve, poor fit]
S=C(N/N=C1\CCc2ccccc21)NC1CCCCC1	inconclusive: 12.6 µM [inhibitor, partial curve, poor fit]
O=C1NC2=C(C(=O)CCC2)C(c2ccccc2)N1 (configuration not stated)	inactive
COc1ccc(NC(=O)C(C)N2C(=O)c3ccccc3S2(=O)=O)c(OC)c1 (configuration not stated)	inconclusive: 12.6 µM [inhibitor, partial curve, poor fit]
Cc1ccc2c(c1)Oc1ccc(NC(=O)CCCl)cc1C(=O)N2	active: 8.91 µM
CCOC(=O)c1c(C)oc2ccc(OCc3cc(C(=O)OC)oc3C)cc12	inactive
O=C(Nc1ccc2oc(=O)ccc2c1)c1ccc(-c2cccc(Cl)c2)o1	inactive
S=C(NCCN1CCOCC1)Nc1ccc(Br)cc1	inactive
O=C(NN1C(=O)c2ccccc2NC1c1ccc([N+](=O)[O-])o1)c1ccc(Br)cc1 (configuration not stated)	inconclusive: 11.2 µM [inhibitor, partial curve, poor fit]
COc1ccccc1N1CCN(S(=O)(=O)CCNC(=O)Cc2ccc(F)cc2)CC1	active: 7.08 µM
CC(=O)CSc1nc(-c2ccccc2)c(-c2ccccc2)o1	inconclusive: 5.01 µM [inhibitor, single point]
O=C(CSc1ccc(Cl)cc1)N/N=C/c1ccc([N+](=O)[O-])o1	inconclusive: 3.98 µM [inhibitor, partial curve, poor fit]
CC1CCc2nc(NC(=O)c3ccc(N4C(=O)CCC4=O)cc3)sc2C1 (configuration not stated)	inconclusive: 12.6 µM [inhibitor, partial curve, poor fit]
